This note sets out measurements from publication PMC12483961.

Common to all, as to test: EMSA
For data set [1], the system named is GST-PpLBD16 (Prunus persica). The note with it: LightShift Chemiluminescent EMSA kit (buffer, salt and pH not stated), 30 min at room temperature in the dark, 6% polyacrylamide gel, recombinant protein, protein details: N-terminal GST (pGEX-4T-1), label: 3' biotin.
Data set [2] concerns HIS-PpSnRK1α (Prunus persica). The note with it: LightShift Chemiluminescent EMSA kit (buffer, salt and pH not stated), 30 min at room temperature in the dark, 6% polyacrylamide gel; recombinant protein; protein details: HIS (pET-32a); label: 3' biotin. Background: Mobility shift assays separate free from complexed probe on a gel.
A further data set deals with GST (UniProt P08515). The note with it: LightShift Chemiluminescent EMSA kit (buffer, salt and pH not stated), 30 min at room temperature in the dark, 6% polyacrylamide gel; recombinant protein; protein details: GST; label: 3' biotin.
Setting [3] is: with HIS-PpSnRK1α (binding enhanced).

For at least one entry, the source does not settle the construct or the ends of the probe. For some of these results: Negatives hold for the conditions tested.

With “AGAGTTTCCCAATTTTACACTAATTTGTTGTTTTTATTTTTTATTTTCTACA (double strand) [proPpCNGC1 probe]”, the binding result in data set [1] is recorded as “binds”; in data set [1] (setting [3]), “binds”; in data set [2], “no binding”.
Turning to “TATAATAATAAAGAAAAGAGGAAAAAAGACTTGTA (double strand) [proPpEXPB2 probe]”, the binding result was “binds” in data set [1], “binds” in data set [1] (setting [3]), “no binding” in data set [2] and “no binding” in the data set with GST.
